According to the supplement of paper PMC10849652:
The other results are listed elsewhere or left out.

Protein sequences, listed by entry. Tags and fused reporters are not part of them. Lines headed by an entry give the natural chain unless they say otherwise; changes in a name come on top.
UniProt P50443: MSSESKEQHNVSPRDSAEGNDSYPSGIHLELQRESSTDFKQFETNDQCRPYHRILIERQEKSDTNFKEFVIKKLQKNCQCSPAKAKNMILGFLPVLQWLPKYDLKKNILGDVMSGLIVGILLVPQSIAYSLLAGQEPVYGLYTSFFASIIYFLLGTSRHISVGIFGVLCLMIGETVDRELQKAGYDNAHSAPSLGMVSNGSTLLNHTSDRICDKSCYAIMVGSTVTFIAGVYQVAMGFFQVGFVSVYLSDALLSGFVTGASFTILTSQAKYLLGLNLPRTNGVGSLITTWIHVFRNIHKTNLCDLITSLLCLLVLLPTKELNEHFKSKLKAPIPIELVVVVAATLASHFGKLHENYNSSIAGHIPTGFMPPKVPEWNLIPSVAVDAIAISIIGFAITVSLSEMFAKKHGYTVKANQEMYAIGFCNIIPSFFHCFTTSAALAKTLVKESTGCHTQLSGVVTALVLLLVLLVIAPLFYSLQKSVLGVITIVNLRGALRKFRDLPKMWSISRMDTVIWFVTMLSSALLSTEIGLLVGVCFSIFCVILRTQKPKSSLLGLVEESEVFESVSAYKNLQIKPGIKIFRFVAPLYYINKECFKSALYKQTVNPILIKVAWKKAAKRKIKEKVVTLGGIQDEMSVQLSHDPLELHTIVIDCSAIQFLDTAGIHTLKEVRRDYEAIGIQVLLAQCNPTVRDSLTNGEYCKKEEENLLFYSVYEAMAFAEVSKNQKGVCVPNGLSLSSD
UniProt Q9NQQ7: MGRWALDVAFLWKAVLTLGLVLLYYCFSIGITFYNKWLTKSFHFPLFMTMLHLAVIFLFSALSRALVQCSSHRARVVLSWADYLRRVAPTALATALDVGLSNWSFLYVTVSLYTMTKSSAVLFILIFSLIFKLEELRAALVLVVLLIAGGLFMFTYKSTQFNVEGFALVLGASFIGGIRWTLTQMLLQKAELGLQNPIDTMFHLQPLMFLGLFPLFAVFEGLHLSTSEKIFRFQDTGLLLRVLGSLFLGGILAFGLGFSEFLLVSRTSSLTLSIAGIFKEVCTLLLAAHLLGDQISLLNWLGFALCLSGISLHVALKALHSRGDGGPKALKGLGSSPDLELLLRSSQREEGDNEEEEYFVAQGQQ
UniProt Q96K37: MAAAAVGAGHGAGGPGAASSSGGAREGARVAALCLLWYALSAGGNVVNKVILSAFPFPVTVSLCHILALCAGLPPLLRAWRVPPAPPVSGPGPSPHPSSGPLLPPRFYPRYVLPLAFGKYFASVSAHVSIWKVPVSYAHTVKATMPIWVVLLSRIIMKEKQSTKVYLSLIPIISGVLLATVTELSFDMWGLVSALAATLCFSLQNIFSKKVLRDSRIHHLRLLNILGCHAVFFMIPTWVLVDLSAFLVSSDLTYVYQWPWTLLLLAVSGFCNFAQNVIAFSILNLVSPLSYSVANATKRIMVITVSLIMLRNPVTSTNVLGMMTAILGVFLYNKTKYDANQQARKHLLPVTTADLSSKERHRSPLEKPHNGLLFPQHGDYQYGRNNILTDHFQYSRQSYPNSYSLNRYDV
UniProt Q8NBI5: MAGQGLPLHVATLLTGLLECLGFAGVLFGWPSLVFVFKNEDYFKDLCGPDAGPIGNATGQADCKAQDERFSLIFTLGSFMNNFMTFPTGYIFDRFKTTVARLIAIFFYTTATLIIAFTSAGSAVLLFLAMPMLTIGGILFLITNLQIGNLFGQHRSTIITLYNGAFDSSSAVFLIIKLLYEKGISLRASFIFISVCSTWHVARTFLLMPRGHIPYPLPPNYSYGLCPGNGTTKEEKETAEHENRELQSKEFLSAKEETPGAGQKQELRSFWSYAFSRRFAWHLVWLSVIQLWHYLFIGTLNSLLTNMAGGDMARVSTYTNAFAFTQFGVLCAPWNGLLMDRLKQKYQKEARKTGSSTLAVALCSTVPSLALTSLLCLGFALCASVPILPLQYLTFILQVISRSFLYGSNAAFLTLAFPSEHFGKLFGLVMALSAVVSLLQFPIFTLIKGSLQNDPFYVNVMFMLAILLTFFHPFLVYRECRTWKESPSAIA
UniProt O76082: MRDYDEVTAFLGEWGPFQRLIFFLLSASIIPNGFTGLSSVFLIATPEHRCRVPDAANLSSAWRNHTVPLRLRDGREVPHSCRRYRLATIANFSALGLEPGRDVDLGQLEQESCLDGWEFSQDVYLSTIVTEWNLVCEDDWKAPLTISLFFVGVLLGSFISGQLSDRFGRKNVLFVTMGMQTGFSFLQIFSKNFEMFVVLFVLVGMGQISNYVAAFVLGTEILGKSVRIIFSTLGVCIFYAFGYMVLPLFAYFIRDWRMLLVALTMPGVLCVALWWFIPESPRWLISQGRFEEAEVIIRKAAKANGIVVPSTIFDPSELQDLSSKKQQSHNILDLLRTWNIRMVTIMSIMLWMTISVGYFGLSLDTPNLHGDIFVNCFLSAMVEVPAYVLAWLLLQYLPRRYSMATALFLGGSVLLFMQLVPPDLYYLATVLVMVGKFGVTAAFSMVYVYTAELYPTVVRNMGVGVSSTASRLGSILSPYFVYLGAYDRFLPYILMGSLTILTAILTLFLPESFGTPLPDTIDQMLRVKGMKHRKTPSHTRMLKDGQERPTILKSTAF
UniProt Q96A29: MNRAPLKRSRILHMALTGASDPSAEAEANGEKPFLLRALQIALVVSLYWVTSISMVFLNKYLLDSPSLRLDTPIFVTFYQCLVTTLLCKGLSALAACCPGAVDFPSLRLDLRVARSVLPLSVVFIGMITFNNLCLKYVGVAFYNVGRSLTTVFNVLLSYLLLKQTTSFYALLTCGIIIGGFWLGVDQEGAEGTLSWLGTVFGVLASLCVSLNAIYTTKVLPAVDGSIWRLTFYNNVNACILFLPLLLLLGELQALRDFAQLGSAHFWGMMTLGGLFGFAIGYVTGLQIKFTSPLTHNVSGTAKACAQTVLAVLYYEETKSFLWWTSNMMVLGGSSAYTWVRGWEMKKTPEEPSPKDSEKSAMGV
UniProt O15431: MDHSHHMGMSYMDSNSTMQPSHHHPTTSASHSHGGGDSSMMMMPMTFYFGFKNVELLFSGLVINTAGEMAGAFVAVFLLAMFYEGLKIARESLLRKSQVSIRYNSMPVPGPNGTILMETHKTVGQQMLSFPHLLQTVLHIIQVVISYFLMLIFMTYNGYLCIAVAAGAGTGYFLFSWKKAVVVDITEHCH
UniProt F5GZS6: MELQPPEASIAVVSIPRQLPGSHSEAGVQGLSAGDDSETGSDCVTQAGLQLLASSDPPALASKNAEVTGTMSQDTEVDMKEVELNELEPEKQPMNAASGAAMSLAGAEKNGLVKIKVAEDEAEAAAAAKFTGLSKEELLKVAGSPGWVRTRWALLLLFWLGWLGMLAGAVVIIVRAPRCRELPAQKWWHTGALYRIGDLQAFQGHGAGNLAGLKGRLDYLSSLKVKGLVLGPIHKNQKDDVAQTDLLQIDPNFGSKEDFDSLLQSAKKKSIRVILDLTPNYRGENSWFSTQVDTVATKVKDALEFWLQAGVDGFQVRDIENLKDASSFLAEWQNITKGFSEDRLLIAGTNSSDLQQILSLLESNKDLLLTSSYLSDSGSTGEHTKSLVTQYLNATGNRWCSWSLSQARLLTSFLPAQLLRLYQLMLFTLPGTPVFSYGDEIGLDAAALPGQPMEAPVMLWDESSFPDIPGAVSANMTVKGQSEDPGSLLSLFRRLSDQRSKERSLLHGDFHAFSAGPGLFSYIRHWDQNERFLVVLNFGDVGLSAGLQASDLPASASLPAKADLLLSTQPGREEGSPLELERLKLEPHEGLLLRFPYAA
UniProt Q8N755: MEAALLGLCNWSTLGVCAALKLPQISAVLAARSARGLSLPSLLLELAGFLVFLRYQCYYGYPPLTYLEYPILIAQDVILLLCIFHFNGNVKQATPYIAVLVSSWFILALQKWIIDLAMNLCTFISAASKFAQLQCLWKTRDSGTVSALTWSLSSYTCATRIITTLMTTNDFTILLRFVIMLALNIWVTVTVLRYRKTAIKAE
UniProt Q6P1K1: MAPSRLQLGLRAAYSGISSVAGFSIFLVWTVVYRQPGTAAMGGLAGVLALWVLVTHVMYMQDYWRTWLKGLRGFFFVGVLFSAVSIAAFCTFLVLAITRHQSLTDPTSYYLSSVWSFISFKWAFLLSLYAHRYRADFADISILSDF
UniProt O95258: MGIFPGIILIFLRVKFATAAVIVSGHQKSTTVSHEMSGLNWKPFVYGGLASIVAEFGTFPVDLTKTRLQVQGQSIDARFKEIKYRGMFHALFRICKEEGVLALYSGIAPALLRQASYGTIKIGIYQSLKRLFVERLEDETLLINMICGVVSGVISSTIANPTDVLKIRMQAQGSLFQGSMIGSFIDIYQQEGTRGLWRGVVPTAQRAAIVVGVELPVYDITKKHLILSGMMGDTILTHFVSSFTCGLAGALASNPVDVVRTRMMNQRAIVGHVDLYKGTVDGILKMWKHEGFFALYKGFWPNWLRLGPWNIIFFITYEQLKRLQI
UniProt Q0GE19: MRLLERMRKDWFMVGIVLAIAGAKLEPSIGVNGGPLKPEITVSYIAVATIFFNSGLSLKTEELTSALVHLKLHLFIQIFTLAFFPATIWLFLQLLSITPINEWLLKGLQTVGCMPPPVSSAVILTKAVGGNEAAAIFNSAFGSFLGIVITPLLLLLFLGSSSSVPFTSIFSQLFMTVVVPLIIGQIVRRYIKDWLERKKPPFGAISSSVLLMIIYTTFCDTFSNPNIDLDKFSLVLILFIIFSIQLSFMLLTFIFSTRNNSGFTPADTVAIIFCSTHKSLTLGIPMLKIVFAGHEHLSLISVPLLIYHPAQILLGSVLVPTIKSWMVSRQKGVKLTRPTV
UniProt Q9BRV3: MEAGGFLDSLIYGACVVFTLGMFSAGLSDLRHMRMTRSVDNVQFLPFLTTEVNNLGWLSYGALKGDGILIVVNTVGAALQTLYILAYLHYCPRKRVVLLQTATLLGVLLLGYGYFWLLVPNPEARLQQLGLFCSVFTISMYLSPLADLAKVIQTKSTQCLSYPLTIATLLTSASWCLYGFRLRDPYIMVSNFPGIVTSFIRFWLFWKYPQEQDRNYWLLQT
UniProt Q3KQZ1: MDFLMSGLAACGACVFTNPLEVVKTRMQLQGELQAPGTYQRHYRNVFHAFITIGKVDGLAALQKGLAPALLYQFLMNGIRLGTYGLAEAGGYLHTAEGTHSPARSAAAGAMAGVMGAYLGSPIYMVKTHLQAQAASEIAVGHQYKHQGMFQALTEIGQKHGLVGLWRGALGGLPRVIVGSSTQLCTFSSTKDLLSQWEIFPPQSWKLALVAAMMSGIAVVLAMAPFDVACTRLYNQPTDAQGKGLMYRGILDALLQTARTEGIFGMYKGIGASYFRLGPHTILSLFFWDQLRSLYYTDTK
UniProt Q96NT5: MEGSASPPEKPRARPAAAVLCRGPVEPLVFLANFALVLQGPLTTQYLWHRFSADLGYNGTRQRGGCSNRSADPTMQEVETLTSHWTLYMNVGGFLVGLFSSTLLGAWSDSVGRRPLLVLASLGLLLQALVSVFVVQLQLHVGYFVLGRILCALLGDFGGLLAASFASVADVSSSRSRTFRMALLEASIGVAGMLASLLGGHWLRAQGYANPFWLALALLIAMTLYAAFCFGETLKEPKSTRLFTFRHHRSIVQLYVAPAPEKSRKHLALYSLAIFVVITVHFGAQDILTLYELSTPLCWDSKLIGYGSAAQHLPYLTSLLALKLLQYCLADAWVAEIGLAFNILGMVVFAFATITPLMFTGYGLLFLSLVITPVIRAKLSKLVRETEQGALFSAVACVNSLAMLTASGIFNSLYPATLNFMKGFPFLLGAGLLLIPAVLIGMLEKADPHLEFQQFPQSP
UniProt Q6ZP29: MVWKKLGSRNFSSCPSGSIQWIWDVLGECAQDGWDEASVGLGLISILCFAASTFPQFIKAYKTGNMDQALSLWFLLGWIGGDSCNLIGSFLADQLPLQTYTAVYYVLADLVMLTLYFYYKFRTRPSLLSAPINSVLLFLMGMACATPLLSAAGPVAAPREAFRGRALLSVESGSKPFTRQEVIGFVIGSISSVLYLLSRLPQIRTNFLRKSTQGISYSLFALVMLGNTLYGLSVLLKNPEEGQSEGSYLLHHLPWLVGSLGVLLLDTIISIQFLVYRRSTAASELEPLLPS
UniProt Q8N697: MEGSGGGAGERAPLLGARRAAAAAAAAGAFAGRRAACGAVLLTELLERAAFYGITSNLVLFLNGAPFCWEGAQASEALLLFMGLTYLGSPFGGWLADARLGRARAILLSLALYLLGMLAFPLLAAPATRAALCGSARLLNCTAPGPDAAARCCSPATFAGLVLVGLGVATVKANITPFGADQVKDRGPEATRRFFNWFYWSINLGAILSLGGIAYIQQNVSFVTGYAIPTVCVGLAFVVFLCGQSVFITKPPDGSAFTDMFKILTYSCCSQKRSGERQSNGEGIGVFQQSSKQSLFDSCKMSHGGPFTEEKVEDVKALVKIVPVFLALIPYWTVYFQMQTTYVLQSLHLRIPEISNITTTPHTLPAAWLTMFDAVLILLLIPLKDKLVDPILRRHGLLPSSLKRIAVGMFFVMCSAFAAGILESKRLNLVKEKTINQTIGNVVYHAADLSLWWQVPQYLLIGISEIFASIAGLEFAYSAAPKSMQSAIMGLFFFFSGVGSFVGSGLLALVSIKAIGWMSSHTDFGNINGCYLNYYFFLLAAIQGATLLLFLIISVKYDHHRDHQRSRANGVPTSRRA

compound: O=C1NC(=O)C(c2cnc3ccccn23)=C1c1cn2c3c(cc(F)cc13)CN(C(=O)N1CCCCC1)CC2; assay: log2 fold change, soluble protein after heating vs DMSO (PISA); higher = thermal stabilisation; K562 cells, 10 uM, 30 min; active = over 0.2 and 3.5 SD of the protein, either way, in both replicates (recomputed)
Procedure, shortened: (§1)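 K562 cells at 2×10^6 cells/mL were treated for 30 min with 10 μM compound, and aliquots were heated for 3 min over 48°C-58°C before pooling. Extraction used PBS with 0.5% NP-40 at 4°C, and soluble protein was the supernatant after 21,000xg for 90 min, measured by TMTpro 16plex LC-MS/MS with channel sums equalised. Thermal stability values, relative to control samples and from duplicates, are log2 fold changes.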

log2 fold change, inactive:
SLC26A2 (UniProt P50443) -0.106
SLC27A6 (UniProt Q9Y2P4) 0.031
SLC10A3 (UniProt P09131) 0.091
SLC22A4 (UniProt Q9H015) -0.104
SLC35C2 isoform 3 (UniProt Q9NQQ7) -0.138
SLC35E1 (UniProt Q96K37) 0.075
SLC43A3 (UniProt Q8NBI5) 0.131
SLC66A2 (UniProt Q8N2U9) 0.2
SLC1A3 (UniProt P43003) -0.18
SLC35F5 (UniProt Q8WV83) -0.08
SLC41A1 (UniProt Q8IVJ1) 0.188
SLC3A2 (UniProt F5H867) -0.093
SLC22A5 isoform 3 (UniProt O76082) 0.352
SLC35C1 (UniProt Q96A29) 0.197
SLC31A1 (UniProt O15431) 0.115
SLC3A2 (UniProt F5GZS6) 0.167
SLC35A5 (UniProt Q9BS91) -0.041
SLC66A3 (UniProt Q8N755) -0.007
SLC36A4 (UniProt Q6YBV0) 0.105

compound: c1cc(OCCN2CCCCC2)cc(-c2n[nH]c3ccc(-c4nnc[nH]4)cc23)c1; assay: as above
Procedure, shortened: as §1

log2 fold change, inactive:
SLC48A1 (UniProt Q6P1K1) -0.006
SLC22A23 (UniProt A1A5C7) 0.163
SLC25A14 isoform 3 (UniProt O95258) -0.071
SLC35C2 isoform 3 (UniProt Q9NQQ7) 0.117
SLC52A2 (UniProt Q9HAB3) -0.004
SLC35E1 (UniProt Q96K37) -0.088
SLC10A7 isoform 1 (UniProt Q0GE19) -0.088
SLC50A1 (UniProt Q9BRV3) -0.186
SLC1A3 (UniProt P43003) -0.182
SLC25A35 (UniProt Q3KQZ1) -0.094
SLC46A1 (UniProt Q96NT5) 0.01
SLC66A1 (UniProt Q6ZP29) -0.038
SLC15A4 (UniProt Q8N697) -0.017
SLC35C1 (UniProt Q96A29) 0.025
SLC31A1 (UniProt O15431) -0.048
SLC25A29 (UniProt Q8N8R3) -0.287
SLC3A2 (UniProt F5GZS6) -0.339

compound: c1cn2cc(-c3ccc4cn[nH]c4c3)nc(Nc3ccc(N4CCOCC4)cc3)c2n1 [entospletinib]; assay: as above
Procedure, shortened: as §1

log2 fold change, inactive:
SLC48A1 (UniProt Q6P1K1) 0.009
SLC22A23 (UniProt A1A5C7) -0.144
SLC25A14 isoform 3 (UniProt O95258) 0.011
SLC35C2 isoform 3 (UniProt Q9NQQ7) 0.065
SLC52A2 (UniProt Q9HAB3) 0.048
SLC35E1 (UniProt Q96K37) 0.039
SLC10A7 isoform 1 (UniProt Q0GE19) -0.033
SLC50A1 (UniProt Q9BRV3) -0.128
SLC25A35 (UniProt Q3KQZ1) -0.044
SLC66A1 (UniProt Q6ZP29) 0.072
SLC15A4 (UniProt Q8N697) 0.076
SLC35C1 (UniProt Q96A29) -0.068
SLC31A1 (UniProt O15431) 0.049
SLC25A29 (UniProt Q8N8R3) -0.279
SLC3A2 (UniProt F5GZS6) -0.051
